From paper PMC3695765
These are yes or no findings as the source states them, for the method shown. Binding seen in cells or lysates may run through a third protein. Some entries that bind do so weakly or less than the wild type. Tags and fused reporters may be left off the sequences shown. Each block holds one molecule with its values, some of them ahead of it.

By UniProt entry, the sequences of proteins in these tests, tags left out.
UniProt O97758: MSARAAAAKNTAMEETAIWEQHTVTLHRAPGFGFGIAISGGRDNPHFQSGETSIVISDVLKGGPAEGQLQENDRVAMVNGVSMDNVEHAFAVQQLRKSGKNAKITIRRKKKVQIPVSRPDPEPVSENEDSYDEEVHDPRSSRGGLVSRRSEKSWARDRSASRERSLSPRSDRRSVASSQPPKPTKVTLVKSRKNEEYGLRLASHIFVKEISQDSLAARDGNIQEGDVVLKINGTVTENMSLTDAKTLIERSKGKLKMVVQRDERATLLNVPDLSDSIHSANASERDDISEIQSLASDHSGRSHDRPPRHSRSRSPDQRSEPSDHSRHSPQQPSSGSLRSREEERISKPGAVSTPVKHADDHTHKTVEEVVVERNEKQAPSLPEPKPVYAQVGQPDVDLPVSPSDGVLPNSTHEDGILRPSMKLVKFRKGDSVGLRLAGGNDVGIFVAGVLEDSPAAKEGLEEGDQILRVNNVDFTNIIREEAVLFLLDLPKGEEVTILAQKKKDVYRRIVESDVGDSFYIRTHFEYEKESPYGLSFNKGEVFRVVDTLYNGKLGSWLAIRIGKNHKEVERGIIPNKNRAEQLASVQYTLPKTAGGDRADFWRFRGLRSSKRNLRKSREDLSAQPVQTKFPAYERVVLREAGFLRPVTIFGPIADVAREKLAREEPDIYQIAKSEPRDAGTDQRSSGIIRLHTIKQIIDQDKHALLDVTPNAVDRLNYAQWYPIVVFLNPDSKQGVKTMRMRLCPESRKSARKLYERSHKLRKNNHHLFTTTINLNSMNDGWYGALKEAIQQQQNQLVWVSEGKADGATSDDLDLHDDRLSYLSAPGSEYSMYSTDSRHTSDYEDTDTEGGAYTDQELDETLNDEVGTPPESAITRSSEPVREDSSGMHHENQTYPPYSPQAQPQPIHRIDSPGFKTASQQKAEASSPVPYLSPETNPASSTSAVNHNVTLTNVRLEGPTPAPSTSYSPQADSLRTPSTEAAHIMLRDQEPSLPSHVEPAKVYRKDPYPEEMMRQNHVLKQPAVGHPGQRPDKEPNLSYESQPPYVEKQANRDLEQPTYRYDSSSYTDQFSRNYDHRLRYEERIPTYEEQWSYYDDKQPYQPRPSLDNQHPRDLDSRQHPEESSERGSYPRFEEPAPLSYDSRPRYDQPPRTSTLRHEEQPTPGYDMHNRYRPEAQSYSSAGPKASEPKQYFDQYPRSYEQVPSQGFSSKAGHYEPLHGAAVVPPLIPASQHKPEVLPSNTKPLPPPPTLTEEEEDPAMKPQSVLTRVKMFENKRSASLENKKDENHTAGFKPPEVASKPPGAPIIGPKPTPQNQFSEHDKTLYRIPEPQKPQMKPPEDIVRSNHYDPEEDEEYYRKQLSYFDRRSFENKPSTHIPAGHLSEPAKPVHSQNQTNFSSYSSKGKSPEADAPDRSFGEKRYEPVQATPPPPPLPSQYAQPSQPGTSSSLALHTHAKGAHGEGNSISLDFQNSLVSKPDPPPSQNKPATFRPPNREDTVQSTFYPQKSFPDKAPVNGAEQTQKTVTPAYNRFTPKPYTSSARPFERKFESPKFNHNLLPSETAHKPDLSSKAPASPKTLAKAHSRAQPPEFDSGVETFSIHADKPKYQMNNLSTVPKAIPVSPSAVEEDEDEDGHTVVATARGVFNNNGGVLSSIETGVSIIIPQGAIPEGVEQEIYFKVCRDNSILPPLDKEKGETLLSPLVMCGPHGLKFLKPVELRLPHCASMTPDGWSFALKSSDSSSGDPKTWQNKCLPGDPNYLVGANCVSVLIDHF

Experiments:
[1] = molecular target: T1, GST-OccC T400A/T404A/S408A (human) (UniProt Q16625); experiment: pull-down; GST-OccC constructs used to pull down endogenous ZO-1 from MDCK C11 lysates; data not shown; only the target purified
T1 sequence: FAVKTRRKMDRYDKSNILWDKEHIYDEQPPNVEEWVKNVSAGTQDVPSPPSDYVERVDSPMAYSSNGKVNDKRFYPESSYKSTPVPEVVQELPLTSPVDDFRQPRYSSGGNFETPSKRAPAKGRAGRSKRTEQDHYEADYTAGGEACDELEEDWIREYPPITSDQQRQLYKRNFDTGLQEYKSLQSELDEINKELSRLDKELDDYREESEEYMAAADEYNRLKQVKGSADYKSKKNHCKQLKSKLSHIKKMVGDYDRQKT

[2] = molecular target: T2, GST-OccC, GST fusion of the C-terminal cytoplasmic tail of human occludin (amino acids 263-523) (human) (UniProt Q16625); experiment: as above
T2 sequence: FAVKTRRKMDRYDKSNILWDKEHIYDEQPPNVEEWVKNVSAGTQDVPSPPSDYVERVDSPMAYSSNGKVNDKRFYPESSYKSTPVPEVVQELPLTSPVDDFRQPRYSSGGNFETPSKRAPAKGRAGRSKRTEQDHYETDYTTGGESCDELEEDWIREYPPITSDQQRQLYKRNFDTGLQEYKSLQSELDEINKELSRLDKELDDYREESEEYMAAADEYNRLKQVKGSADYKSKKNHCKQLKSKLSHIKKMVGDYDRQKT

[3] = molecular target: T3, GST-OccC T400E/T404E/S408E (human) (UniProt Q16625); experiment: as above
T3 sequence: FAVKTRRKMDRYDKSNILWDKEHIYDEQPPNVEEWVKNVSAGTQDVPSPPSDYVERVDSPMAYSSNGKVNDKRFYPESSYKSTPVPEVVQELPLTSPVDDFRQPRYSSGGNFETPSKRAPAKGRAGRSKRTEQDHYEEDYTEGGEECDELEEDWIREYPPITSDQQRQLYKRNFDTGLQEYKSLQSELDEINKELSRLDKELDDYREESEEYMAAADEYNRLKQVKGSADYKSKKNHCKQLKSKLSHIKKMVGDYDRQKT

[4] = molecular target: T2, GST-OccC, GST fusion of the C-terminal cytoplasmic tail of human occludin (amino acids 263-523) (human); experiment: pull-down; purified GST-OccC, with or without prephosphorylation in vitro by purified CK2, used to pull down FLAG-ZO-2 from lysates of transiently transfected HEK-293 cells; blot with anti-FLAG M2; only the target purified
[5] = molecular target: T1, GST-OccC T400A/T404A/S408A (human); experiment: pull-down; 5 μg purified GST-OccC construct with clarified lysate (1 mg protein) of MDCK C11 cells transfected with pGW-HA-cZO-2; GSH-agarose, 1 h at 4°C; PBS, 0.2% Triton X-100, 1 mM NaVO3, 10 mM NaF; blot with anti-HA; only the target purified
[6] = molecular target: T2, GST-OccC, GST fusion of the C-terminal cytoplasmic tail of human occludin (amino acids 263-523) (human); experiment: as above
[7] = molecular target: T4, human occludin wild type, N-terminal fusion with YFP or CFP (human), Q16625; experiment: FRET or BRET; acceptor photobleaching FRET at cell-cell contacts of living co-transfected HEK-293 cells; CFP and YFP fusions; cis-interaction along the cell membrane; settings: remark: other sources report otherwise
T4 chain: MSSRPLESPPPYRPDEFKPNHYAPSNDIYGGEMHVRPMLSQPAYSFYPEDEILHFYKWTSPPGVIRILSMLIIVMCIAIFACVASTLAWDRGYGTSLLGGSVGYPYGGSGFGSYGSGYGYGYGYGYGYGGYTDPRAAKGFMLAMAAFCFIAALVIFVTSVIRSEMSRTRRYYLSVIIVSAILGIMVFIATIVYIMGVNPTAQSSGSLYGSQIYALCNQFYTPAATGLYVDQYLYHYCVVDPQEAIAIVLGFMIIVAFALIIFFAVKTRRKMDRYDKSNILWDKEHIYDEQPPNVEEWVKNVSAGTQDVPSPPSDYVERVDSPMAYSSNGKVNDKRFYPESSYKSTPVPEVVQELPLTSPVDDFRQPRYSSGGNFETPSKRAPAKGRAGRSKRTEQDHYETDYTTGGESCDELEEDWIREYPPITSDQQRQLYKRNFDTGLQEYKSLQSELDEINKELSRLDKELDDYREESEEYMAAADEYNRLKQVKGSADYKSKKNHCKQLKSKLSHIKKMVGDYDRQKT

[8] = molecular target: T1, GST-OccC T400A/T404A/S408A (human); experiment: pull-down; GST fusion proteins of the occludin C-terminal cytoplasmic domain incubated with lysates of HEK-293 cells transiently transfected with FLAG-occludin; GSH-agarose; blot with anti-FLAG M2; only the target purified
[9] = molecular target: T3, GST-OccC T400E/T404E/S408E (human); experiment: as above

binding [1]: binds | binding [2]: binds | binding [3]: binds
Molecule: endogenous ZO-1 of MDCK C11 cells (from UniProt O97758 1-1769)

binding [4]: binds
B1: FLAG-tagged ZO-2 (pFLAG-CMV2-hZO-2) (protein, UniProt Q9UDY2 1-1190)
chain: MPVRGDRGFPPRRELSGWLRAPGMEELIWEQYTVTLQKDSKRGFGIAVSGGRDNPHFENGETSIVISDVLPGGPADGLLQENDRVVMVNGTPMEDVLHSFAVQQLRKSGKVAAIVVKRPRKVQVAALQASPPLDQDDRAFEVMDEFDGRSFRSGYSERSRLNSHGGRSRSWEDSPERGRPHERARSRERDLSRDRSRGRSLERGLDQDHARTRDRSRGRSLERGLDHDFGPSRDRDRDRSRGRSIDQDYERAYHRAYDPDYERAYSPEYRRGARHDARSRGPRSRSREHPHSRSPSPEPRGRPGPIGVLLMKSRANEEYGLRLGSQIFVKEMTRTGLATKDGNLHEGDIILKINGTVTENMSLTDARKLIEKSRGKLQLVVLRDSQQTLINIPSLNDSDSEIEDISEIESNRSFSPEERRHQYSDYDYHSSSEKLKERPSSREDTPSRLSRMGATPTPFKSTGDIAGTVVPETNKEPRYQEDPPAPQPKAAPRTFLRPSPEDEAIYGPNTKMVRFKKGDSVGLRLAGGNDVGIFVAGIQEGTSAEQEGLQEGDQILKVNTQDFRGLVREDAVLYLLEIPKGEMVTILAQSRADVYRDILACGRGDSFFIRSHFECEKETPQSLAFTRGEVFRVVDTLYDGKLGNWLAVRIGNELEKGLIPNKSRAEQMASVQNAQRDNAGDRADFWRMRGQRSGVKKNLRKSREDLTAVVSVSTKFPAYERVLLREAGFKRPVVLFGPIADIAMEKLANELPDWFQTAKTEPKDAGSEKSTGVVRLNTVRQIIEQDKHALLDVTPKAVDLLNYTQWFPIVIFFNPDSRQGVKTMRQRLNPTSNKSSRKLFDQANKLKKTCAHLFTATINLNSANDSWFGSLKDTIQHQQGEAVWVSEGKMEGMDDDPEDRMSYLTAMGADYLSCDSRLISDFEDTDGEGGAYTDNELDEPAEEPLVSSITRSSEPVQHEESIRKPSPEPRAQMRRAASSDQLRDNSPPPAFKPEPPKAKTQNKEESYDFSKSYEYKSNPSAVAGNETPGASTKGYPPPVAAKPTFGRSILKPSTPIPPQEGEEVGESSEEQDNAPKSVLGKVKIFEKMDHKARLQRMQELQEAQNARIEIAQKHPDIYAVPIKTHKPDPGTPQHTSSRPPEPQKAPSRPYQDTRGSYGSDAEEEEYRQQLSEHSKRGYYGQSARYRDTEL

binding [5]: binds | binding [6]: binds
B2: HA-tagged ZO-2 (pGW-HA-cZO-2) (protein, UniProt Q95168 1-1174)
chain: MEELIWEQYTVTLQKDSKRGFGIAVSGGRDNPHFENGETSIVISDVLPGGPADGLLQENDRVVMVNGTPMEDVLHSFAVQQLRKSGKIAAIVVKRPRKVQLAPPQGSLPVDEDDRAFEVMDEFDGRSARSGYSERSRRSSHGGRSRSWEDSPERGRPHERAWSQERERSRGRSLERGLDHDDDYRRPRERSRGRSLERGLDHDDDYGRPGERSHGMSTDRGYDRGYDRGYDRGYDRTYSPEAEYGRRTQPDARHAGSRSRSREHLRSRSPSPELRGRPDHAGQPDSDRPIGVLLMKSKANEEYGLRLGSQIFIKQMTRTALATKDGNLHEGDIILKINGTVTENMSLTDARKLIEKSRGKLQLVVLRDSKQTLINIPSLNDSDSEIEDISEIESNRSFSPEERRQQYSDYDYHSSNEKLKERPNSREDMQNRWSRMGATPTPFKSMGDIASVVGTENSKEPRYQEEPPAPQPKAAPRTFLRPSPEDEAIYGPNTKMVRFKKGDSVGLRLAGGNDVGIFVAGIQEGTSAEQEGLQEGDQILKVNTQDFRGLVREDAVLYLLEIPKGEMVTILAQSRADVYRDILACGRGDSFFIRSHFECEKETPQSLAFSRGEVFRVVDTLYDGKLGHWLAVRIGNELEKGLIPNKSRAEQMASVQNAQRDNAGDRADFWRMRGQRSGMKKNLRKSREDLTAAVSVSTKFPAYERVLLREAGFKRPVVLFGPIADIALEKLANELPDLFQTAKTEPKDAGSEKSSGVVRLNTVRQIIEQDKHALLDVTPKAVDLLNYTQWFPIVIFFNPDSRQGVKTMRQRLNPTSNKSSRKLYDQANKLKKTCAHLFTATINLNSANDSWFGSLKDTIQHQQGEAVWVSEGKMEGMDDDPEDRMSYLTAMGADYLSCDSRLISDFEDTDGEGGAYTDNELDEPAEEPLVSSITRSSEPVQHEESIRKPSPEPRAQMRRAASRDQLRDSSPPPAFKPEPPKAKTQNREESFDISRSHDYKSNPSAVAGNEVSGASTRSCPPPIAAKPSFGRSILKPSTPVPSPESEEVGEGSEEQEGAPKSVLGKVKIFEKMDHKARLQRMQELQEAQNARIEIAQKHPDIYAVPIKTHKPDPGLSQHTSSRPPEPQKGPSRLYQDPRGSYGSDAEEEEYRQQLSEHSKRGYYSQPSRYRDTEL

binding [7]: binds
B3: human occludin wild type, N-terminal fusion with YFP or CFP, Q16625 1-522 (protein)
chain: MSSRPLESPPPYRPDEFKPNHYAPSNDIYGGEMHVRPMLSQPAYSFYPEDEILHFYKWTSPPGVIRILSMLIIVMCIAIFACVASTLAWDRGYGTSLLGGSVGYPYGGSGFGSYGSGYGYGYGYGYGYGGYTDPRAAKGFMLAMAAFCFIAALVIFVTSVIRSEMSRTRRYYLSVIIVSAILGIMVFIATIVYIMGVNPTAQSSGSLYGSQIYALCNQFYTPAATGLYVDQYLYHYCVVDPQEAIAIVLGFMIIVAFALIIFFAVKTRRKMDRYDKSNILWDKEHIYDEQPPNVEEWVKNVSAGTQDVPSPPSDYVERVDSPMAYSSNGKVNDKRFYPESSYKSTPVPEVVQELPLTSPVDDFRQPRYSSGGNFETPSKRAPAKGRAGRSKRTEQDHYETDYTTGGESCDELEEDWIREYPPITSDQQRQLYKRNFDTGLQEYKSLQSELDEINKELSRLDKELDDYREESEEYMAAADEYNRLKQVKGSADYKSKKNHCKQLKSKLSHIKKMVGDYDRQKT

binding [8]: binds | binding [9]: binds
B4: full-length FLAG-occludin (protein, UniProt Q16625 1-522)
chain: MSSRPLESPPPYRPDEFKPNHYAPSNDIYGGEMHVRPMLSQPAYSFYPEDEILHFYKWTSPPGVIRILSMLIIVMCIAIFACVASTLAWDRGYGTSLLGGSVGYPYGGSGFGSYGSGYGYGYGYGYGYGGYTDPRAAKGFMLAMAAFCFIAALVIFVTSVIRSEMSRTRRYYLSVIIVSAILGIMVFIATIVYIMGVNPTAQSSGSLYGSQIYALCNQFYTPAATGLYVDQYLYHYCVVDPQEAIAIVLGFMIIVAFALIIFFAVKTRRKMDRYDKSNILWDKEHIYDEQPPNVEEWVKNVSAGTQDVPSPPSDYVERVDSPMAYSSNGKVNDKRFYPESSYKSTPVPEVVQELPLTSPVDDFRQPRYSSGGNFETPSKRAPAKGRAGRSKRTEQDHYETDYTTGGESCDELEEDWIREYPPITSDQQRQLYKRNFDTGLQEYKSLQSELDEINKELSRLDKELDDYREESEEYMAAADEYNRLKQVKGSADYKSKKNHCKQLKSKLSHIKKMVGDYDRQKT
